We go through 2 substances from paper doi:10.1101/2023.01.11.523622.

Sequences of proteins named here, by UniProt entry; tags and fusion partners are left off.
UniProt O00571: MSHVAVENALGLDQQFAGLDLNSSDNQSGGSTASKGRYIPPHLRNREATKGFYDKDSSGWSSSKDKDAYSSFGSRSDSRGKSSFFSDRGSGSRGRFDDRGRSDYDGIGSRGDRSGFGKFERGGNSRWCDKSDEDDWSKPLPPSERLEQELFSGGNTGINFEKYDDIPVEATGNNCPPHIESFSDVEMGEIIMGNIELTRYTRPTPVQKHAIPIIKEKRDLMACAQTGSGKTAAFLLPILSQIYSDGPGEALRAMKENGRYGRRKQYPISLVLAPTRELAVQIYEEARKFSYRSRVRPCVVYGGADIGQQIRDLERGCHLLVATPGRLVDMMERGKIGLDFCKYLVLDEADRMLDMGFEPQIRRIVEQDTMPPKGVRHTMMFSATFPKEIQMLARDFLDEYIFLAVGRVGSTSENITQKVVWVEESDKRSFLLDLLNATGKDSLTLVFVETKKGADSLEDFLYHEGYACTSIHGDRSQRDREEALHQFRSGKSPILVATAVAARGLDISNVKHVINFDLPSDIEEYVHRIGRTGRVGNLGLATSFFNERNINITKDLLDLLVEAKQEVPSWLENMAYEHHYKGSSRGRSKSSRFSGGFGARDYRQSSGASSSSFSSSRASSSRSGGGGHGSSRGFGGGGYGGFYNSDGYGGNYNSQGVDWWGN
UniProt Q93009: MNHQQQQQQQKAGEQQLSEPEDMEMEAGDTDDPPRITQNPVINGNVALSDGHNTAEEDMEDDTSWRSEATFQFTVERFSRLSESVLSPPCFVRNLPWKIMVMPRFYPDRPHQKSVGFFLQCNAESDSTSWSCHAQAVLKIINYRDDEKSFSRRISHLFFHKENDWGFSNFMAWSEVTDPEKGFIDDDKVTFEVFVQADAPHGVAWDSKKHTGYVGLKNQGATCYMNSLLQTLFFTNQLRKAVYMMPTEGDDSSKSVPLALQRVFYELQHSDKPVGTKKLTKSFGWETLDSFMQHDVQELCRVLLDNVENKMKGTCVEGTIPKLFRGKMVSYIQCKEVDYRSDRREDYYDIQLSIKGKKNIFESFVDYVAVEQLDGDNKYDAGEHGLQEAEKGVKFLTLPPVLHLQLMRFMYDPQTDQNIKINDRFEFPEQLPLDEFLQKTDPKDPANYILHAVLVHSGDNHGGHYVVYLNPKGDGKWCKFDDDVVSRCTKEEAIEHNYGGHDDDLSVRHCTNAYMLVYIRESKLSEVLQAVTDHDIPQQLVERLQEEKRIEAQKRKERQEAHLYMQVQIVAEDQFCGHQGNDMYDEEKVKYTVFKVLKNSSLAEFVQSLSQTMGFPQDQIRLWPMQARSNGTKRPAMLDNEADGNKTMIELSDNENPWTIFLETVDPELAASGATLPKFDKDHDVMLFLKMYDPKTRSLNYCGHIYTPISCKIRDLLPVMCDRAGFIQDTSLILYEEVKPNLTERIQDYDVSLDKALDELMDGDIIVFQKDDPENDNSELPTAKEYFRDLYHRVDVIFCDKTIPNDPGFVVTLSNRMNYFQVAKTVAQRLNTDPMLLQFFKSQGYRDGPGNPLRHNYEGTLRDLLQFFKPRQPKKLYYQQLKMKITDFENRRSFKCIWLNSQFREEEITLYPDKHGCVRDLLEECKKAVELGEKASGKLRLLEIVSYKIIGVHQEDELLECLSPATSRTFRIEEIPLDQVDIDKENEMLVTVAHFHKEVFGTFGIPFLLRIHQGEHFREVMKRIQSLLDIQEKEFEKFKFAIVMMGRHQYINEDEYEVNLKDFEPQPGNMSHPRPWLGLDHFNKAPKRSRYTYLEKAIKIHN

Results are given in words; binding and its absence hold for the method and conditions named. Binding seen in cells or lysates may run through a third protein. Some entries that bind do so weakly or less than the wild type.

Experiment [1] addresses FLAG-tagged DDX3X (UniProt O00571). The experiment can be described thus: co-IP.
Experiment [2] concerns the target GFP-tagged USP7, full length (UniProt Q93009). The experiment can be described thus: co-IP.

With “Endogenous USP7 (from UniProt Q93009 1-1102) (enzyme)”, the binding entry in experiment [1] was “binds”.

As for “FLAG-tagged DDX3X (from UniProt O00571 1-662)”, the binding entry in experiment [2] is listed as “binds”.
